# Results: paper PMC7862700
# Amino acid sequences for entries named in this document (tags omitted). A change or cut given only in a name is not applied to a line headed by its entry.
# UniProt Q01892: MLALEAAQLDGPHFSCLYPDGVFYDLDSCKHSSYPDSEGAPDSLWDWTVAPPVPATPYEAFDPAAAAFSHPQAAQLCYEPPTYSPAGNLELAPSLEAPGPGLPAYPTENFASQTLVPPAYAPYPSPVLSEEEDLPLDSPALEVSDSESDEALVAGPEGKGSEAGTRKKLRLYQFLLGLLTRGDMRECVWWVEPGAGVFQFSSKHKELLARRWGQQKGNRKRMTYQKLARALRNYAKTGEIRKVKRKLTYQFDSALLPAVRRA
# UniProt Q99607: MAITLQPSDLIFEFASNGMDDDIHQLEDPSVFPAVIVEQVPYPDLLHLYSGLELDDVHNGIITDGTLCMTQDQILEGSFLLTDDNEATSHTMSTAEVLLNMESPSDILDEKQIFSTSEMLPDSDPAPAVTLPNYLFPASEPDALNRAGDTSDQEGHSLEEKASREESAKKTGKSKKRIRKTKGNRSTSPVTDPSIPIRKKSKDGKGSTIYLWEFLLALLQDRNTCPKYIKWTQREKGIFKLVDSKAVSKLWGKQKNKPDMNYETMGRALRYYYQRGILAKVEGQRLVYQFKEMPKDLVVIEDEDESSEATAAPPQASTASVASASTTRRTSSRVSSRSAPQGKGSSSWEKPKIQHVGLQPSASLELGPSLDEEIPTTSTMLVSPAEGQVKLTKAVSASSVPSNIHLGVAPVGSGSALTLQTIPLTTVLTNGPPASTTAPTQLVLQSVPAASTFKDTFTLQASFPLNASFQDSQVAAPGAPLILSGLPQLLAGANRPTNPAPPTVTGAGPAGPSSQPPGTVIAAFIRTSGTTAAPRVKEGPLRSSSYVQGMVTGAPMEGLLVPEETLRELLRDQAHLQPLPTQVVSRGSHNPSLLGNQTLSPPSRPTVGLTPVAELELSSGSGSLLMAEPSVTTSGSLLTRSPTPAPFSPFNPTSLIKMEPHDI
# The list shows a part of the results, in another mix than the full data. At the low end of the ranking the order means little.
# Experiments:
# Experiment in all cases: DAPPL (digital affinity profiling via proximity ligation, sequencing)
# Conditions in all cases: 10 mM Tris-HCl pH 7.5, 50 mM NaCl, 1 mM DTT, 4% glycerol, room temperature, 30 min; GST-TFs on glutathione beads, 16-mer random dsDNA library, 0.1% …; high values mean tight binding; double strand, one strand shown; scale: fold enrichment (6-mer frequency, TF over GST control)
# FLI1 = target: T1, FLI1 (UniProt Q01543)
# T1 sequence: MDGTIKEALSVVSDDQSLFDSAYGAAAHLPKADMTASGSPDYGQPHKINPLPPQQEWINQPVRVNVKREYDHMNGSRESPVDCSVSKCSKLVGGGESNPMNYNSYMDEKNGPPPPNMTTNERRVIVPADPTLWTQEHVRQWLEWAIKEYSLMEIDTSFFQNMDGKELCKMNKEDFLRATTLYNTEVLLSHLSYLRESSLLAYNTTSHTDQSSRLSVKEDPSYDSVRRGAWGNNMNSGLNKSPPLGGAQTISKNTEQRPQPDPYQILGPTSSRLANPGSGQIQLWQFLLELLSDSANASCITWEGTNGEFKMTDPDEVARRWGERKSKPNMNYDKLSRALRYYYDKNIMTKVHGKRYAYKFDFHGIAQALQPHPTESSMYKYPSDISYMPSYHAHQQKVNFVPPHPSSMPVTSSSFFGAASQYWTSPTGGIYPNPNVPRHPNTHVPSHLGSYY
# SPIB = SPIB (UniProt Q01892)
# ELF4 = ELF4 (UniProt Q99607)
# ETV2 = target: T2, ETV2 (UniProt O00321)
# T2 sequence: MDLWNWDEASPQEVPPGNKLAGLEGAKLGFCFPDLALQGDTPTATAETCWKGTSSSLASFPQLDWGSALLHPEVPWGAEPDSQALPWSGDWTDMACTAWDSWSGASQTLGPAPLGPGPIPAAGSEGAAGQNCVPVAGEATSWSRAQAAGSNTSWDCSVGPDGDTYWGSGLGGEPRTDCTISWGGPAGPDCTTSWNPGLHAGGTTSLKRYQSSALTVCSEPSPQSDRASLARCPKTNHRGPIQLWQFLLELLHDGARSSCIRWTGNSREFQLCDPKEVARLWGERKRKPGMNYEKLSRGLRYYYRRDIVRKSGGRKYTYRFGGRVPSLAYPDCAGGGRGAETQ
# ETV3L = target: T3, ETV3L (UniProt Q6ZN32)
# T3 sequence: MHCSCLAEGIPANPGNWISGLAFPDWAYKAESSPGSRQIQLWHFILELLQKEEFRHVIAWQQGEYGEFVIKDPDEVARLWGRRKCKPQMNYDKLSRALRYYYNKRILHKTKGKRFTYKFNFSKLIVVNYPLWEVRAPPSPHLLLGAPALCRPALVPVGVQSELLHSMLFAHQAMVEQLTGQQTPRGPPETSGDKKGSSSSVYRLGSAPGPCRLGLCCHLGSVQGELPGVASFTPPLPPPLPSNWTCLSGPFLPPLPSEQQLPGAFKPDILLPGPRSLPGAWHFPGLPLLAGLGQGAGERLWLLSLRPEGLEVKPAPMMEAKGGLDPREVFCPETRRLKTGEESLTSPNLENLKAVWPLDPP
# EHF = target: T4, EHF (UniProt Q9NZC4)
# T4 sequence: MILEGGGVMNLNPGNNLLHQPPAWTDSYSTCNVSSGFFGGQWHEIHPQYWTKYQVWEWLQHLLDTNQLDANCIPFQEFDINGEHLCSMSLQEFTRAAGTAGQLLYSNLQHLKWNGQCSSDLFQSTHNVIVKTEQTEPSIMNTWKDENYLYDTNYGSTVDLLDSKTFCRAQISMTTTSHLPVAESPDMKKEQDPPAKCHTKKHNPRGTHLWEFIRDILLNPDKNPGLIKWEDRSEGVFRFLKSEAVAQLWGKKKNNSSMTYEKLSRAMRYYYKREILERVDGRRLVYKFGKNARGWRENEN
sequence,measurement,setting,value
TCTATG,binding signal,FLI1,1.12
same,binding signal,SPIB,1.12
ATGAAC,binding signal,FLI1,1.31
same,binding signal,SPIB,1.27
TACAAC,binding signal,FLI1,1.16
same,binding signal,SPIB,1.18
GTGACC,binding signal,FLI1,1.29
same,binding signal,SPIB,1.24
CTCCCC,binding signal,FLI1,1.44
same,binding signal,SPIB,1.38
TACAAT,binding signal,ELF4,1.26
CATTTG,binding signal,ELF4,1.26
CATATC,binding signal,ELF4,1.29
CACGAT,binding signal,FLI1,1.4
same,binding signal,SPIB,1.32
GATGCA,binding signal,ELF4,1.23
CGCCTA,binding signal,ELF4,1.12
TCTATT,binding signal,ELF4,1.27
TTGATC,binding signal,ELF4,1.14
CTGCTG,binding signal,ELF4,1.25
TAGGGC,binding signal,FLI1,0.868
same,binding signal,SPIB,0.982
CTGGTC,binding signal,FLI1,1.11
same,binding signal,SPIB,1.35
ATCACA,binding signal,ELF4,1.1
ACATGT,binding signal,FLI1,1.23
same,binding signal,SPIB,1.15
TCTGAA,binding signal,FLI1,1.11
same,binding signal,SPIB,1.26
CACCGA,binding signal,FLI1,1.01
same,binding signal,SPIB,0.998
TCTCCA,binding signal,FLI1,1.52
same,binding signal,SPIB,1.44
ACCTTA,binding signal,FLI1,1.34
same,binding signal,SPIB,1.21
TATTTT,binding signal,ELF4,1.4
CTCCAG,binding signal,ELF4,1.21
AAAAAT,binding signal,ELF4,1.38
CTGACG,binding signal,ELF4,1.06
CTGAAG,binding signal,FLI1,1.02
same,binding signal,SPIB,1.04
GTTTTG,binding signal,ELF4,1.18
ATGTTA,binding signal,ELF4,1.33
ATAACA,binding signal,ELF4,1.28
ACCCGG,binding signal,ELF4,1.7
CCATCT,binding signal,ELF4,1.25
CATGAC,binding signal,FLI1,1.23
same,binding signal,SPIB,1.16
ACGCTA,binding signal,FLI1,1.14
same,binding signal,SPIB,1.07
TACTAT,binding signal,FLI1,1.5
same,binding signal,SPIB,1.42
CCGACA,binding signal,ELF4,1.13
TGCCTA,binding signal,ELF4,1.09
AATGCG,binding signal,FLI1,1.24
same,binding signal,SPIB,1.31
TCCCAT,binding signal,FLI1,1.36
same,binding signal,SPIB,1.48
TCAACG,binding signal,ELF4,1.11
same,binding signal,ETV2,1.18
TTTGTC,binding signal,ELF4,1.18
same,binding signal,ETV2,1.16
same,binding signal,ETV3L,1.32
CATCGC,binding signal,EHF,0.976
same,binding signal,ELF4,1.13
same,binding signal,ETV2,0.97
GTTATA,binding signal,EHF,0.958
same,binding signal,ELF4,0.977
same,binding signal,ETV2,0.972
same,binding signal,ETV3L,1.06
GCAATA,binding signal,SPIB,0.975
same,binding signal,ELF4,1.07
same,binding signal,ETV2,1.01
same,binding signal,ETV3L,0.951
TTCGGT,binding signal,ELF4,1.17
same,binding signal,ETV2,1.13
same,binding signal,ETV3L,1.11
ACCACA,binding signal,ELF4,1.11
same,binding signal,ETV2,0.996
AGGATG,binding signal,ELF4,0.97
same,binding signal,ETV2,0.897
GTAGTT,binding signal,SPIB,0.988
same,binding signal,ELF4,0.935
same,binding signal,ETV2,1.04
same,binding signal,ETV3L,1.01
CTACGT,binding signal,ELF4,1.24
same,binding signal,ETV2,1.03
ATAGCG,binding signal,SPIB,0.916
same,binding signal,ELF4,0.964
same,binding signal,ETV2,0.969
same,binding signal,ETV3L,0.956
CGATCA,binding signal,EHF,0.956
same,binding signal,ELF4,1.06
same,binding signal,ETV2,0.995
TGTTCG,binding signal,EHF,1.2
same,binding signal,ELF4,0.976
same,binding signal,ETV2,0.915
same,binding signal,ETV3L,1.01
GAACTA,binding signal,ELF4,1.21
same,binding signal,ETV2,1.31
same,binding signal,ETV3L,1.27
GTCCGC,binding signal,ELF4,0.993
same,binding signal,ETV2,0.919
GTCCCA,binding signal,SPIB,1.06
same,binding signal,ELF4,1.13
same,binding signal,ETV2,0.995
same,binding signal,ETV3L,1.13
TCCATG,binding signal,EHF,1.17
same,binding signal,ELF4,1.16
same,binding signal,ETV2,1.2
TCAAGC,binding signal,SPIB,0.994
same,binding signal,ELF4,0.986
same,binding signal,ETV2,1.09
same,binding signal,ETV3L,1.08
AACCGC,binding signal,ELF4,1.12
same,binding signal,ETV2,1.12
same,binding signal,ETV3L,1.08
GGGTTC,binding signal,ELF4,1.12
same,binding signal,ETV2,0.992
GCTAGC,binding signal,EHF,1.19
same,binding signal,ELF4,1.3
same,binding signal,ETV2,1.39
GATATG,binding signal,SPIB,0.996
same,binding signal,ELF4,1.11
same,binding signal,ETV2,0.938
same,binding signal,ETV3L,1.08
TGACGG,binding signal,EHF,0.932
same,binding signal,SPIB,0.994
same,binding signal,ELF4,0.907
same,binding signal,ETV2,0.966
same,binding signal,ETV3L,0.893
ACGGTA,binding signal,EHF,0.979
same,binding signal,SPIB,0.987
same,binding signal,ELF4,0.969
same,binding signal,ETV2,1.03
same,binding signal,ETV3L,0.947
CTATCG,binding signal,EHF,1.07
same,binding signal,ELF4,1.15
same,binding signal,ETV2,0.974
same,binding signal,ETV3L,1.07
ACCTCT,binding signal,ELF4,1.33
same,binding signal,ETV2,1.35
same,binding signal,ETV3L,1.32
AAGTTG,binding signal,EHF,1.14
same,binding signal,ELF4,1.14
same,binding signal,ETV2,0.838
GTAATG,binding signal,EHF,1.12
same,binding signal,SPIB,1.06
same,binding signal,ELF4,1.08
same,binding signal,ETV2,1.04
CACCAC,binding signal,EHF,1.11
same,binding signal,ELF4,1.13
same,binding signal,ETV2,1.14
same,binding signal,ETV3L,1.19
CTATGG,binding signal,EHF,1.3
same,binding signal,ELF4,1.15
same,binding signal,ETV2,1.28
same,binding signal,ETV3L,1.16
TACCAT,binding signal,EHF,1.11
same,binding signal,ELF4,1.22
same,binding signal,ETV2,1.15
CTCTAT,binding signal,EHF,1.09
same,binding signal,ELF4,1.18
same,binding signal,ETV2,1.21
CACTAC,binding signal,EHF,1.28
same,binding signal,ELF4,1.27
same,binding signal,ETV2,1.34
CGTCCA,binding signal,EHF,1.02
same,binding signal,ELF4,0.974
same,binding signal,ETV2,0.983
TGGTGG,binding signal,EHF,0.948
same,binding signal,ELF4,0.927
same,binding signal,ETV2,1.03
same,binding signal,ETV3L,0.95
CTTCCA,binding signal,ELF4,1.33
same,binding signal,ETV2,1.37
AAGCGC,binding signal,ELF4,1.12
same,binding signal,ETV2,0.969
same,binding signal,ETV3L,1.13
TGCTTG,binding signal,EHF,1.31
same,binding signal,SPIB,1.2
same,binding signal,ELF4,1.12
same,binding signal,ETV2,1.26
AAAGCC,binding signal,EHF,0.935
same,binding signal,SPIB,1
same,binding signal,ELF4,0.944
same,binding signal,ETV2,0.993
same,binding signal,ETV3L,0.98
GTTGTA,binding signal,EHF,0.997
same,binding signal,SPIB,0.96
same,binding signal,ELF4,0.997
same,binding signal,ETV2,0.989
TTATCT,binding signal,ELF4,1.25
same,binding signal,ETV3L,1.44
TACCTT,binding signal,ELF4,1.38
same,binding signal,ETV3L,1.34
TTGCAG,binding signal,EHF,0.99
same,binding signal,SPIB,1.16
same,binding signal,ELF4,1.09
same,binding signal,ETV2,1.17
AAGGCT,binding signal,SPIB,1.01
same,binding signal,ELF4,0.997
same,binding signal,ETV2,1.15
ACCCAT,binding signal,EHF,1.16
same,binding signal,ELF4,1.25
same,binding signal,ETV3L,1.34
TCGCCG,binding signal,SPIB,1.16
same,binding signal,ELF4,1.21
same,binding signal,ETV3L,1.25
AACAAG,binding signal,SPIB,1.06
same,binding signal,ELF4,1.17
same,binding signal,ETV2,1
ACCTCA,binding signal,ELF4,1.2
same,binding signal,ETV3L,1.29
GGACAT,binding signal,ELF4,1.11
same,binding signal,ETV3L,1.13
GGTATG,binding signal,EHF,0.9
same,binding signal,ELF4,0.983
same,binding signal,ETV3L,0.899
ATCGCA,binding signal,SPIB,0.975
same,binding signal,ELF4,1.12
same,binding signal,ETV2,0.977
CTTATT,binding signal,EHF,1.48
same,binding signal,ELF4,1.43
same,binding signal,ETV3L,1.5
GCAAAC,binding signal,EHF,0.99
same,binding signal,SPIB,0.988
same,binding signal,ELF4,1.06
same,binding signal,ETV2,0.937
CACATC,binding signal,SPIB,1.46
same,binding signal,ELF4,1.36
same,binding signal,ETV2,1.44
CTCACC,binding signal,ELF4,1.28
same,binding signal,ETV3L,1.16
GTACCC,binding signal,EHF,1.16
same,binding signal,ELF4,1.06
TCACGG,binding signal,SPIB,0.945
same,binding signal,ELF4,0.995
same,binding signal,ETV2,0.957
AGTTTC,binding signal,ELF4,1.2
same,binding signal,ETV3L,1.33

# Rewritten tab-delimited: entries from further up.
sequence	measurement	setting	value
CTCCCC	binding signal	FLI1	1.44
same	binding signal	SPIB	1.38
TACAAT	binding signal	ELF4	1.26
CATTTG	binding signal	ELF4	1.26

# 5 records picked at random from those above:
sequence,measurement,setting,value
AAGCGC,binding signal,ELF4,1.12
TACCTT,binding signal,ELF4,1.38
GGTATG,binding signal,EHF,0.9
CGTCCA,binding signal,ELF4,0.974
TCTATG,binding signal,SPIB,1.12

# Exported as tab-separated lines: entries from further up
sequence	measurement	setting	value
AATGCG	binding signal	FLI1	1.24
same	binding signal	SPIB	1.31
